Results are given in words; binding and its absence hold for the method and conditions named. Binding seen in cells or lysates may run through a third protein. Some results given as binding are weak or reduced against the parent protein; the word gives no strength.
Biological target: T1, Potassium chloride cotransporter (KCC2) (mouse (endogenous in cortex and hippocampus)) (UniProt Q91V14)
T1 sequence: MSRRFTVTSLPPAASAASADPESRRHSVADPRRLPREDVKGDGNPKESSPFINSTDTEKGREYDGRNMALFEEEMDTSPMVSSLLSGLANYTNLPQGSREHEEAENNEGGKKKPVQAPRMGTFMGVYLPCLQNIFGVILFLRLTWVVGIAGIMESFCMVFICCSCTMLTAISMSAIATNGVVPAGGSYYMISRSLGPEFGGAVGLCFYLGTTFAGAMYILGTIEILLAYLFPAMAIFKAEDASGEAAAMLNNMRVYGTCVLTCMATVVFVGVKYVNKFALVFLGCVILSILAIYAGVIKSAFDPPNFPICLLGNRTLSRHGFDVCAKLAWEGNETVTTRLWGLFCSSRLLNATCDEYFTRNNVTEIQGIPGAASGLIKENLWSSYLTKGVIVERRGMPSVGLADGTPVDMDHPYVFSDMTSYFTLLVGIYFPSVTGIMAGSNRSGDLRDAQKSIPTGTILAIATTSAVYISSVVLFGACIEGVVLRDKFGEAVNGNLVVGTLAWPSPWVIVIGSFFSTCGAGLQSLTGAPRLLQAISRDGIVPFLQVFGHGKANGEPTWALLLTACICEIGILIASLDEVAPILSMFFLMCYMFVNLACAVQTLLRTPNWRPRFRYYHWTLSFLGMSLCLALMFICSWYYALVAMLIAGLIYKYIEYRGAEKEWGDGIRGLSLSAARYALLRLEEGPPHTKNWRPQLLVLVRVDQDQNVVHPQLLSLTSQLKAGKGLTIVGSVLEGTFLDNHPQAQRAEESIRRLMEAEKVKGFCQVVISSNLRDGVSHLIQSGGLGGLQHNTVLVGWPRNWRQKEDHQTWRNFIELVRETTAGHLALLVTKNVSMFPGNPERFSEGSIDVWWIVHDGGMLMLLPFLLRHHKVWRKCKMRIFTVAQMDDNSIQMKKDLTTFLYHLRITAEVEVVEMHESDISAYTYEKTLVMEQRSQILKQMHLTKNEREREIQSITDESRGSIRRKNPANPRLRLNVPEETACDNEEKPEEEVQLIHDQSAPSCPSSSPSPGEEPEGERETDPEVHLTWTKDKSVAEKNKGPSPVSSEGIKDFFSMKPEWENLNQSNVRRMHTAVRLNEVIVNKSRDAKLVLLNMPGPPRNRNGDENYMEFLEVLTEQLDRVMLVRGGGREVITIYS
Experiment: co-IP; KCC2 antibody or nonimmune mouse IgG cross-linked to Protein G Dynabeads; purified plasma membrane preparations of cortex and hippocampus of WT and Cdkl5 KO mice; precipitate immunoblotted with CDKL5 antibody

binding: binds
B1: Cyclin-dependent kinase-like 5 (CDKL5) (protein, UniProt Q3UTQ8 1-938)
chain: MKIPNIGNVMNKFEILGVVGEGAYGVVLKCRHKETHEIVAIKKFKDSEENEEVKETTLRELKMLRTLKQENIVELKEAFRRRGKLYLVFEYVEKNMLELLEEMPNGVPPEKVKSYIYQLIKAIHWCHKNDIVHRDIKPENLLISHNDVLKLCDFGFARNLSEGNNANYTEYVATRWYRSPELLLGAPYGKSVDMWSVGCILGELSDGQPLFPGESEIDQLFTIQKVLGPLPSEQMKLFYSNPRFHGLRFPAVNHPQSLERRYLGILNSVLLDLMKNLLKLDPADRYLTEQCLNHPTFQTQRLLDRSPSRSTKRKPYHVESSTLSNRNQSTKGAALQTHHRSNSKDIQNLSVGLPRAEEGLPANESFLNGNLAGATLSPMHTKTYQASTQPGSSSKDLTNNNIPHLLSPKEAKSKTEFDFNIDTKPSEGPGTKYLKSSTRSQQNRHSFMESSQSKAGTLQPSEKQSRHSYIDTIPQSSRSPSYRTKAKSHGALSDSKSVSNLSEARAQITETNTSRYFPSSCLDLNSPTSPTPTRHTDTRTLLSPSGRNNRNEGTLDSRRTTTRHSKTMEELKLPEHMDSSHSHSLSAPHESFSYGLGYTSPFSSQQRPHRHSMYVTRDKVRAKGLDGSLSIGQGMAARANSLQLLSPQPGEQLPPEMTVARPSVKESSREGASSFHTRQKSEGGVYHDPHSDDGTAPKENRHLYNDPVPRRVGSFYRVPSPRPDNSFHENNVSTRVSSLPSDSSSGTNHSKRQPGFDPWKSPENISHADQLKEKEKQGFFRSMKKKKKKTQTVPNTDGPDLLTLQKAIHSSSTASSRPKEWRPEKLSDLQTQSQPLKSLRKLLHLSSSTNHPASSDPRFQPLTAQQAKNSFSEIRIHPLSQATGGSSNIRQEPTPKGRPALQLPGSSLLRYNGWKHSRSRSSQPDEVIFLASHEKWKQ

Reference: publication PMC12992657
